Test results published in PubChem BioAssay AID514 (SGCOxCompounds, 2006).

Chains of the proteins cited; added tags and fusions are not shown. Lines headed by an entry give the natural chain unless they say otherwise; changes in a name come on top.
UniProt Q9H2G2: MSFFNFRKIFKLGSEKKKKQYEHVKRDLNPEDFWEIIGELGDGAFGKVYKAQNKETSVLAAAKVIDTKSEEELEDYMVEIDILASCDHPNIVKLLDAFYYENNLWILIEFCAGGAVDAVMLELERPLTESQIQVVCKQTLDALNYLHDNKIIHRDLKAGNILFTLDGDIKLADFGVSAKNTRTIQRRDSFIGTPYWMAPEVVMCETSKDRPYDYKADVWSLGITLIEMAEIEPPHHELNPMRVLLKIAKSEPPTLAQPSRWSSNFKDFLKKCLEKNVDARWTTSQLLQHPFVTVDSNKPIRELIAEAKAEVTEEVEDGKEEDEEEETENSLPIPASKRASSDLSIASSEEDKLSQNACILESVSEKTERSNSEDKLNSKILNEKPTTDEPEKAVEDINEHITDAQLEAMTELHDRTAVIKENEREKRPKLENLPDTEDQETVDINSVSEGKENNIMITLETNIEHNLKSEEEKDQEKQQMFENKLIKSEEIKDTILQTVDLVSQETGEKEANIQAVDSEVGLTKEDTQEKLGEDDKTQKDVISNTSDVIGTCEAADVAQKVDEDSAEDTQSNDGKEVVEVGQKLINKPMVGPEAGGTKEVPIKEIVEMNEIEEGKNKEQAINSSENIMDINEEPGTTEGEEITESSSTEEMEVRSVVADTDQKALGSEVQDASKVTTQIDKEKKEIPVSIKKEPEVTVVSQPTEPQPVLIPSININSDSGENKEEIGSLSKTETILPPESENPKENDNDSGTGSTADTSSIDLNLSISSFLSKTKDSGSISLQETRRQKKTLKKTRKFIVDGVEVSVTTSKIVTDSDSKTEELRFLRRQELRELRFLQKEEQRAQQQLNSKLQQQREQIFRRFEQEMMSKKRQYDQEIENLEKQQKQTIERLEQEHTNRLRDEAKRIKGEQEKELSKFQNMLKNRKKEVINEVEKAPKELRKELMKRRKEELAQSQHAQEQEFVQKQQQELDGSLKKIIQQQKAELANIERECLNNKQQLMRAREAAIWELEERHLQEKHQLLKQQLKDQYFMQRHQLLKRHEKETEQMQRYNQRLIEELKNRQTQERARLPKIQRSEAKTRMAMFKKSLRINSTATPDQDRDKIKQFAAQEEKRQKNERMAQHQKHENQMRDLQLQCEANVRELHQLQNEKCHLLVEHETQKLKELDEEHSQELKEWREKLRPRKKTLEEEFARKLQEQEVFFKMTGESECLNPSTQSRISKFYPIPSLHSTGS

Biological target: STE20-like serine/threonine-protein kinase (Homo sapiens) (UniProt Q9H2G2)
Test: ligand-induced SLK melting temperature shift – biophysical, purified human kinase, DSF (AID 514)
Settings: differential scanning fluorimetry Tm shift, at 10 µM, protein 2 µM, buffer 10 mM HEPES, pH 7.5, NaCl 150 mM, stronger effect = higher value

`CCC(CO)Nc1ccc2ncc(-c3cccc(Cl)c3)n2n1` (stereo unspecified) was tested, and the Tm shift was 4.4 C.
